# Measured data: PubChem BioAssay AID686937 (Drosophila RNAi Screening Center, 2013)
# Aim: 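Knock-downs that reduce output of a secreted reporter enzyme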 (primary screen)
# Cells: Drosophila S2 cells expressing secreted horseradish peroxidase
# Reagent: long dsRNA against Drosophila genes
# Time to read-out: about 5.5 days (5 days dsRNA, then 12 h reporter induction)
# Challenge: reporter expression induced after 5 days of dsRNA, read 12 h later; inducer not stated
# Measured: 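Chemiluminescent measurement of peroxidase in the medium 12 h after reporter induction, following 5 days of dsRNA, given as a z-score per plate; higher means more secretion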
# Direction: z-score: higher = more reporter secreted into medium
# The deposit covers about 23,000 reagents; this is an unselected part of those with a known target gene and a result. 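Reduced-secretion tags in replicate 1 do not always agree with the z-scores; no criterion for assigning the tags was given.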 Further read-outs or replicates are left out here. Not given: the amount of reagent.
gene knocked down,amplicon,"z-score, replicate 1"
pch2 (GeneID 41013),DRSC14368,0.07
Jhbp11 (GeneID 43263),DRSC15183,0.39
CG11449 (GeneID 40467),DRSC11662,0.27
CG7579 (GeneID 39714),DRSC10885,0.17
CG17019 (GeneID 36425),DRSC06642,0.37
Acsf3 (GeneID 31668),DRSC18146,-0.01
ATPsynC (GeneID 43693),DRSC15236,-0.39
wun (GeneID 35966),DRSC07719,0.11
CG10470 (GeneID 35174),DRSC02061,-0.02
CG6688 (GeneID 42716),DRSC16094,0.23
Edem1 (GeneID 31154),DRSC18573,0.02
CG2113 (GeneID 38356),DRSC08554,0.35
Cyp309a2 (GeneID 33439),DRSC00526,0.3
CG6845 (GeneID 38019),DRSC08576,-0.12
CG13526 (GeneID 37613),DRSC04168,0.39
CG6685 (GeneID 39172),DRSC10695,-0.01
TTLL15 (GeneID 41300),DRSC15543,0
Ogg1 (GeneID 31806),DRSC17738,0.16
CG13065 (GeneID 39786),DRSC09948,0.08
CG17127 (GeneID 34489),DRSC02581,0.18
Prps (GeneID 39132),DRSC08994,-1.54
Prps (GeneID 39132),DRSC10707,-1.83
Prps (GeneID 39132),DRSC10708,-0.84
CG33109 (GeneID 326258),DRSC16533,0.16
Ldsdh1 (GeneID 31726),DRSC18219,0.26
CG15465 (GeneID 31434),DRSC18048,0.46
CG11601 (GeneID 33197),DRSC00318,0.19
nocte (GeneID 31976),DRSC18123,1
CG5787 (GeneID 34684),DRSC02895,0.39
Dis3 (GeneID 42900),DRSC16034,-1.58
Ugt302K1 (GeneID 53502),DRSC16086,0.48
Obp56h (GeneID 37271),DRSC06433,-0.27
ranshi (GeneID 41041),DRSC16564,0.12
